Data as given in PubChem BioAssay AID1259424 (University of Nebraska Medical Center, 2018)
The deposit covers about 14,000 reagents; below is an unselected part. 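Higher correlation or smaller distance means closer resemblance to KSR1 loss; control wells, including KSR1 knockdowns, recur on many plates.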 Not all columns of the deposit are shown. Not stated in the record: the time to read-out.

Screen: 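Rank knockdowns across the genome by resemblance to the KSR1 depletion profile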 (primary screen)
Cells: human HCT116 colon cancer cells
Knock-down reagent: siRNA pool against human genes, 50 nM
Measurement: 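Six signature mRNAs by branched-DNA multiplex assay, scaled to two housekeeping genes and non-targeting median, log2; matched to mean KSR1 knockdown profile by Pearson correlation and euclidean distance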
Direction: mean correlation with KSR1 profile: higher = expression change more like KSR1 knockdown

For DHRS9 [SID363996652], the values are mean correlation with KSR1 profile 0.714.
PTTG3P [SID364001942] showed mean correlation with KSR1 profile -0.467.
BSND [SID364004457] scored mean correlation with KSR1 profile 0.0091.
Against SOX1 [SID363996842] the deposit lists mean correlation with KSR1 profile -0.496.
With knock-down of CNGA4 [SID364005340], the record shows mean correlation with KSR1 profile -0.328.
LMLN [SID364004287] gave mean correlation with KSR1 profile -0.128.
With knock-down of KDM1A [SID363999252] the results were mean correlation with KSR1 profile 0.231.
Against PTPN14 [SID363996310], the values are mean correlation with KSR1 profile -0.221.
DIS3 [SID363999221] gave mean correlation with KSR1 profile -0.558.
Against CACTIN [SID364005539] the deposit lists mean correlation with KSR1 profile -0.832.
For CLSTN1 [SID363999214], the entry reads mean correlation with KSR1 profile -0.551.
Depletion of GGA3 [SID363998537] resulted in: mean correlation with KSR1 profile 0.0761.
After knock-down of TIMP2 [SID363994376], the screen gave mean correlation with KSR1 profile -0.31.
With knock-down of HLA-A [SID363993322] the results were mean correlation with KSR1 profile -0.196.
For CREG1 [SID363994912], the values are mean correlation with KSR1 profile 0.15.
ALLC [SID364001069] gave mean correlation with KSR1 profile 0.782.
PVR [SID363997302] gave mean correlation with KSR1 profile -0.713.
PIK3R4 [SID363998974] gave mean correlation with KSR1 profile 0.0226.
Silencing of DYRK4 [SID363994906] resulted in: mean correlation with KSR1 profile -0.293.
MDM2 [SID363993572] scored mean correlation with KSR1 profile -0.12.
Silencing of AP1M1 [SID364004009] resulted in: mean correlation with KSR1 profile -0.294.
FBXO7 [SID363998117] scored mean correlation with KSR1 profile -0.103.
Against HS3ST4 [SID363996891], the values are mean correlation with KSR1 profile -0.595.
With knock-down of PARP10 [SID364005609], the screen gave mean correlation with KSR1 profile 0.419.
CSNK1G3 [SID363995368] showed mean correlation with KSR1 profile 0.188.
With knock-down of ALG1 [SID364001409] the results were mean correlation with KSR1 profile 0.726.
PDE5A [SID363992380] scored mean correlation with KSR1 profile 0.269.
Silencing of HIGD1A [SID363998580] came out at: mean correlation with KSR1 profile 0.449.
ALK [SID363995297] showed mean correlation with KSR1 profile -0.188.
For ACTN1 [SID363992399] the deposit lists mean correlation with KSR1 profile -0.162.
After knock-down of CDX1 [SID363993022], the screen gave mean correlation with KSR1 profile 0.291.
Knock-down of DPM3 [SID364001297] came out at: mean correlation with KSR1 profile -0.343.
Knock-down of PGBD1 [SID364004020] gave: mean correlation with KSR1 profile 0.0154.
Silencing of RRAGA [SID363997361] came out at: mean correlation with KSR1 profile 0.0562.
Depletion of CKB [SID363993038] gave: mean correlation with KSR1 profile 0.452.
ACSBG1 [SID363999338] scored mean correlation with KSR1 profile -0.366.

Sorted by “mean correlation with KSR1 profile” (high to low): some entries from above.
MDM2 [SID363993572] — mean correlation with KSR1 profile: -0.12
AP1M1 [SID364004009] — mean correlation with KSR1 profile: -0.294
